Reference: PubChem BioAssay AID1224830 (NIAID, 2016)
Purpose: 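Regulators of TLR4 signalling towards TNF-alpha in macrophage-like cells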 (primary screen). Cell system: human THP-1 monocytic leukaemia cells, TNF dual-luciferase reporter clone, PMA-differentiated to macrophage-like cells. Knock-down reagent: siRNA pool against human genes, 50 nM. Duration: LPS for 4 h, given about 3 days after siRNA transfection. Challenge: bacterial LPS (TLR4 ligand), 10 ng/ml. Read-out: 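TNF firefly reporter luminescence divided by renilla, normalised to the plate median, then turned into a robust z-score for each replicate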. Direction: TNF reporter robust z-score: higher = stronger TNF reporter response to LPS. Hit rule: 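Each well counts as active if its z-score is over 2.8 or under -1.5; controls are left without a call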.
The whole screen tested about 18,000 reagents; shown is an unselected part. Over the whole deposit, about 2,900 (16%) were called active. 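Calls are made per well; low scores hint the gene aids the LPS response, high scores that it dampens it.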 Entries without a mark were called inactive. Repeated entries: four replicate wells of each siRNA pool.

| Gene | PubChem SID | TNF reporter robust z-score |
| --- | --- | --- |
| SLC1A2 | SID315451446 | -0.49 |
| SLC1A2 | SID315451446 | -0.81 |
| SLC1A2 | SID315451446 | -1.17 |
| SLC1A2 | SID315451446 | 1.96 |
| CEP83 (centrosomal protein 83) | SID315456501 | -0.44 |
| CEP83 (centrosomal protein 83) | SID315456501 | -0.6 |
| CEP83 (centrosomal protein 83) | SID315456501 | -0.95 |
| CEP83 (centrosomal protein 83) | SID315456501 | -1.34 |
| NOSIP (nitric oxide synthase interacting protein) | SID315456441 | -0.83 |
| NOSIP (nitric oxide synthase interacting protein) | SID315456441 | -1.91 (active) |
| NOSIP (nitric oxide synthase interacting protein) | SID315456441 | -1.78 (active) |
| NOSIP (nitric oxide synthase interacting protein) | SID315456441 | 0.33 |
| FGL2 (fibrinogen like 2) | SID315454417 | 0.02 |
| FGL2 (fibrinogen like 2) | SID315454417 | 0.18 |
| FGL2 (fibrinogen like 2) | SID315454417 | -0.17 |
| FGL2 (fibrinogen like 2) | SID315454417 | -0.16 |
| SLC17A4 | SID315453777 | -1.1 |
| SLC17A4 | SID315453777 | -0.82 |
| SLC17A4 | SID315453777 | -0.65 |
| SLC17A4 | SID315453777 | -0.48 |
| SMPD4 (sphingomyelin phosphodiesterase 4) | SID315457727 | -0.44 |
| SMPD4 (sphingomyelin phosphodiesterase 4) | SID315457727 | -0.6 |
| SMPD4 (sphingomyelin phosphodiesterase 4) | SID315457727 | -0.01 |
| SMPD4 (sphingomyelin phosphodiesterase 4) | SID315457727 | 0.37 |
| GJA10 (gap junction protein alpha 10) | SID315460470 | 0.85 |
| GJA10 (gap junction protein alpha 10) | SID315460470 | 1.95 |
| GJA10 (gap junction protein alpha 10) | SID315460470 | 1.84 |
| GJA10 (gap junction protein alpha 10) | SID315460470 | 1.92 |
| FBXO43 (F-box protein 43) | SID315463900 | -1.24 |
| FBXO43 (F-box protein 43) | SID315463900 | 0.16 |
| FBXO43 (F-box protein 43) | SID315463900 | -1.34 |
| FBXO43 (F-box protein 43) | SID315463900 | -0.19 |

Reprinted from above for reference:
| Gene | PubChem SID | TNF reporter robust z-score |
| --- | --- | --- |
| GJA10 (gap junction protein alpha 10) | SID315460470 | 1.95 |
| GJA10 (gap junction protein alpha 10) | SID315460470 | 1.84 |
| GJA10 (gap junction protein alpha 10) | SID315460470 | 1.92 |

The list goes on.
| Gene | PubChem SID | TNF reporter robust z-score |
| --- | --- | --- |
| WDR27 (WD repeat domain 27) | SID315463428 | 0 |
| WDR27 (WD repeat domain 27) | SID315463428 | 0.82 |
| WDR27 (WD repeat domain 27) | SID315463428 | 0.9 |
| WDR27 (WD repeat domain 27) | SID315463428 | 0.65 |
| PGBD1 (piggyBac transposable element derived 1) | SID315460403 | 2.27 |
| PGBD1 (piggyBac transposable element derived 1) | SID315460403 | 2.13 |
| PGBD1 (piggyBac transposable element derived 1) | SID315460403 | 2.05 |
| PGBD1 (piggyBac transposable element derived 1) | SID315460403 | 2.94 (active) |
| CAMSAP1 (calmodulin regulated spectrin associated protein 1) | SID315462640 | -0.07 |
| CAMSAP1 (calmodulin regulated spectrin associated protein 1) | SID315462640 | 0.29 |
| CAMSAP1 (calmodulin regulated spectrin associated protein 1) | SID315462640 | -0.01 |
| CAMSAP1 (calmodulin regulated spectrin associated protein 1) | SID315462640 | 1.06 |
| PSD (pleckstrin and Sec7 domain containing) | SID315450870 | 1.17 |
| PSD (pleckstrin and Sec7 domain containing) | SID315450870 | 1.33 |
| PSD (pleckstrin and Sec7 domain containing) | SID315450870 | 0.97 |
| PSD (pleckstrin and Sec7 domain containing) | SID315450870 | 1.64 |
